Results are given in words; binding and its absence hold for the method and conditions named. A result given as binding can be weak or reduced; the word gives no strength.
Biological target: FleQ from Pseudomonas syringae pv. tomato DC3000 (Pseudomonas syringae pv. tomato DC3000) (UniProt Q884Y2)
Assay: native gel or EMSA; supershift of the FleQ-DNA band on a 32P-labelled wssA1-2 promoter fragment; 1 uM FleQ and 1 uM FleN (equimolar), with or without 0.5 mM ATP and 0.5 mM c-di-GMP; STAD buffer (25 mM Tris-acetate pH 8.0, 8 mM Mg-acetate, 10 mM KCl, 3.5% PEG-8000, 1 mM DTT) with poly(dI-dC) and BSA; 30 min at 4°C; 4% native polyacrylamide gel in Tris-glycine; both purified

By UniProt entry, the sequences of proteins in these tests, tags left out. Where a name states a change or a piece, a line headed by the entry shows the natural chain unless it says otherwise.
UniProt Q884Y2: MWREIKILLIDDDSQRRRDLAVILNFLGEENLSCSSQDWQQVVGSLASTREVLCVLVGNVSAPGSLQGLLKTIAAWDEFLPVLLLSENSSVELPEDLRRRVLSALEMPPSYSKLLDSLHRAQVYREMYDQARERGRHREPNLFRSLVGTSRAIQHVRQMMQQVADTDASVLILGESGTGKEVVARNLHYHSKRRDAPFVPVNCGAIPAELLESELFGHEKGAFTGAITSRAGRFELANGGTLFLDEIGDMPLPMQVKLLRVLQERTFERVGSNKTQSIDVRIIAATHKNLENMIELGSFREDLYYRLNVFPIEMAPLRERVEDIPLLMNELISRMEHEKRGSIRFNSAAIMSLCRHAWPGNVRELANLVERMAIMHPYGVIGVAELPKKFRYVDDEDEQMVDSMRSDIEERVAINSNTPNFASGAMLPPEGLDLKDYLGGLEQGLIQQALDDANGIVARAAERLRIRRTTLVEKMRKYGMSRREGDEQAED
UniProt Q884V8: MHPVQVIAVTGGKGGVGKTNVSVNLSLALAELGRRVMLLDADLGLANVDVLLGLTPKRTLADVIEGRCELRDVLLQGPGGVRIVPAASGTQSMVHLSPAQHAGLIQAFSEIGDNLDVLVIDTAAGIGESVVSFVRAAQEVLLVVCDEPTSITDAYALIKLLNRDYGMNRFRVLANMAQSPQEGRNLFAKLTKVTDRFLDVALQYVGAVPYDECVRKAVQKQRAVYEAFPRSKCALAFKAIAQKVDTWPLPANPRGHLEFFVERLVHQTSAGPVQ

His6-FleN from Pseudomonas syringae pv. tomato DC3000 (from UniProt Q884V8)
binding: binds

— paper PMC10083355
